Results are given in words; binding and its absence hold for the method and conditions named. Some entries that bind do so weakly or less than the wild type.
The binders below were run against Cyno CD137-his (cynomolgus monkey) (UniProt A9YYE7) (assay: BLI (Octet Red 96), antibody captured on AHC sensor).

Chains of the proteins cited; added tags and fusions are not shown. Residues count along the entry.
UniProt A9YYE7, residues 24-186: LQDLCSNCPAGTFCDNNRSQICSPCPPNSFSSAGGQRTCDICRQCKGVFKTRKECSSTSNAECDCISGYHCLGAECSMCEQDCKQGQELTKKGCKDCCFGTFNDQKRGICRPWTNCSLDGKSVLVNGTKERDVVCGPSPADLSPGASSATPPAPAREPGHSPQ

| binding | Binder |
| --- | --- |
| binds | Anti-CD137 2-9 IgG2 (antibody, V domains shown) VH: QVQLVQSGAEVKKPGASVKASCKASGFNIQDTYIHWVRQAPGQGLEWMGRIDPANGNSEYAQKFQGRVTMTRDTSTSTVYMELSSLRSEDTAVYYCTTGNLHYALMDYWGQGTSVTVSS VL: DIQMTQSPSSVSASVGDRVTITCKASQPINTYLSWYQQKPGKAPKLLIYRVNRKVDGVPSRFSGSGSGTDFTLTISSLQPEDFATYYCLQYLDFPYTFGGGTKLEIKR |

The binders below were run against cynomolgus-CD137 (ELISA antigen of the affinity maturation screen) (cynomolgus) (UniProt A9YYE7) (assay: ELISA of Fab in supernatants after phage panning).

| Binder | binding |
| --- | --- |
| Clone 3 (Fab in supernatant) (Fab, V domains shown) VH: QVQLVQSGAEVKKPGASVKVSCKASGFNPKDTYIHWVRQAPGQGLEWMGRIDPANGFTEYAQKFQGRVTMTRDTSTSTVYMELSSLRSEDTAVYYCTTGNLHYALMDYWGQGTSVTVSS VL: DIQMTQSPSSVSASVGDRVTITCKASQAINTYLSWYQQKPGKAPKLLIYRANRMVDGVPSRFSGSGSGTDFTLTISSLQHEDFATYYCLQSDDFPYTFGGGTKLEIKR | binds |
| Clone 5 (Fab in supernatant) (Fab, V domains shown) VH: QVQLVQSGAEVKKPGASVKVSCKASGFNIRDTYIHWVRQAPGQGLEWMGKIDPANGNTEYAQKFQGRVTMTRDTSTSTVYMELSSLRSEDTAVYYCTTGNLHYGLMDYWGQGTSVTVSS VL: DIQMTQSPSSVSASVGDRVTITCKASQAINTYHSWYQQKPGKAPKLLIYRVNRMVDGVPSRFSGSGSGTDFTLTISSLQPEDFATYYCLQYLDFPYTFGGGTKLEIKR | binds |
| Clone 9 (Fab in supernatant) (Fab, V domains shown) VH: QVQLVQSGAEVKKPGASVKVSCKASGFNLKDTYIHWVRQAPGQGLEWMGKIDPANGNTEYAQKFQGRVTMTRDTSTSTVYMELSSLRSEDTAVYYCTTGNLHYALMDYWGQGTSVTVSS VL: DIQMTQSPSSVSASVGDRVTITCKASQAIATYLSWYQQKPGKAPKLLIYRANRMYDGVPSRFSGSGSGTDFTLTISSLQPEDFATYYCLQFDDFPYTFGGGTKLEIKR | binds |
| Clone 2-9 (Fab in supernatant) (Fab, V domains shown) VH: QVQLVQSGAEVKKPGASVKASCKASGFNIQDTYIHWVRQAPGQGLEWMGRIDPANGNSEYAQKFQGRVTMTRDTSTSTVYMELSSLRSEDTAVYYCTTGNLHYALMDYWGQGTSVTVSS VL: DIQMTQSPSSVSASVGDRVTITCKASQPINTYLSWYQQKPGKAPKLLIYRVNRKVDGVPSRFSGSGSGTDFTLTISSLQPEDFATYYCLQYLDFPYTFGGGTKLEIKR | binds |
| Clone 2-11 (Fab in supernatant) (Fab, V domains shown) VH: QVQLVQSGAEVKKPGASVKVSCKASGFNIKDTYIHWVRQAPGQGLEWMGKIDPANGGTEYAQKFQGRVTMTRDTSTSTVYMELSSLRSEDTAVYYCTTGNLHYALMDYWGQGTSVTVSS VL: DIQMTQSPSSVSASVGDRVTITCKASQPINTYLSWYQQKPGKAPKLLIYRVNRKVDGVPSRFSGSGSGTDFTLTISSLQPEDFATYYCLQYVDFPYTFGGGTKLEIKR | binds |

Next, values leading:

| binding | Binder |
| --- | --- |
| binds | Clone 23 (Fab in supernatant) (Fab, V domains shown) VH: QVQLVQSGAEVKKPGASVKVSCKASGFNIKDTYIHWVRQAPGQGLEWMGKIDPANGQTEYAQKFQGRVTMTRDTSTSTVYMELSSLRSEDTAVYYCTTGNLHYALMDYWGQGTSVTVSS VL: DIQMTQSPSSVSASVGDRVTITCKASQAINTYLSWYQQKPGKAPKLLIYRANRMVGGVPSRFSGSGSGTDFTLTISSLQPEDFATYYCLQYRDFPYTFGGGTKLEIKR |
| binds | Clone 35 (Fab in supernatant) (Fab, V domains shown) VH: QVQLVQSGAEVKKPGASVKVSCKASGFNINDTYIHWVRQAPGQGLEWMGRIDPANGYTEYAQKFQGRVTMTRDTSTSTVYMELSSLRSEDTAVYYCTTGNLHYALMDYWGQGTSVTVSS VL: DIQMTQSPSSVSASVGDRVTITCKASQAIATYLSWYQQKPGKAPKLLIYRANRMVDGVPSRFSGSGSGTDFTLTISSLQPEDFATYYCLQFQDFPYTFGGGTKLEIKR |
| binds | Clone 18 (Fab in supernatant) (Fab, V domains shown) VH: QVQLVQSGAEVKKPGASVKVSCQASGFNIKDTYIHWVRQAPGQGLGWMGKIDPANGMTEYAQKFQGRVTVTRDTSTSTVYMELSSLRSEDTAVYYCTTGNLHYALMDYWGQGTSVTVSS VL: DIQMTQSPSSVSASVGDRVTITCKASQAPNTYLSWYQQKPGKAPKLLIYRANRMVDGVPSRFSGSGSGTDFTLTISSLQPEDFATYYCLQYEDFPYTFGGGTKLEIKR |
| binds | Clone 19 (Fab in supernatant) (Fab, V domains shown) VH: QVQLVQSGAEVKKPGASVKVSCKASGFNMKDTYIHWVRQAPGQGLEWMGKIDPANGATEYAQKFQGRVTMTRDTSTSTVYMELSSLRSEDTAVYYCTTGNLHYGLMDYWGQGTSVTVSS VL: DIQMTQSPSSVSASVGDRVTITCKASQAINTYLSWYQQKPGKAPKLLIYRANRMGDGVPSRFSGSGSGTDFTLTISSLQPEDFATYYCLQSDDFPYTFGGGTKLEIKR |
| binds | Clone 25 (Fab in supernatant) (Fab, V domains shown) VH: QVQLVQSGAEVKKPGASVKVSCKASGFNIQDTYIHWVRQAPGQGLEWMGRIDPANGNSEYAQKFQGRVTMTRDTSTSTVYMELSSLRSEDTAVYYCTTGNLHYGLMDYWGQGTSVTVSS VL: DIQMTQSPSSVSASVGDRVTITCKASQAINTYLSWYQQKPGKAPKLLIYRDNRKVDGVPSRFSGSGSGTDFTLTISSLQPEDFATYYCLQYQDFPYKFGGGTKLEIKR |
| binds | Clone 33 (Fab in supernatant) (Fab, V domains shown) VH: QVQLVQSGAEVKKPGASVKVSCKASGFNIKDTYIQWVRQAPGQGLEWMGKIDPANGNTMYAQKFQGRVTMTRDTSTSTVYMELSSLRSEDTAVYYCTTGNLHYALMDYWGQGTSVTVSS VL: DIQMTQSPSSVSASVGDRVTITCKASQTINTYLSWYQQKPGKAPKLLIYRANRMPDGVPSRFSGSGSGTDFTLTISSLQPEDFATYYCLQYDDFPYTFGGGTKLEIKR |
| binds | Clone 20 (Fab in supernatant) (Fab, V domains shown) VH: QVQLVQSGAEVKKPGASVKVSCKASGFNMKDTYIHWVRQAPGQGLEWMGKIDPANGDTEYAQKFQGRVTMTRDTSTSTVYMELSSLRSEDTAVYYCTTGNLHYALMDYWGQGTSVTVSS VL: DIQMTQSPSSVSASVGDRVTITCKASQAINTYLSWYQQKPGKAPKLLIYRANRAVDGVPSRFSGSGSGTDFTLTISSLQPEDFATYYCLQYLDFPYTFGGGTKLEIKR |

Reference: patent publication US20230067770A1
